Measurements: paper doi:10.1101/2023.08.17.553727

Tests used:
Assay in all cases: co-IP
[1] = target: T1, YFP-B’β (Arabidopsis thaliana) (UniProt O04376)
T1 sequence: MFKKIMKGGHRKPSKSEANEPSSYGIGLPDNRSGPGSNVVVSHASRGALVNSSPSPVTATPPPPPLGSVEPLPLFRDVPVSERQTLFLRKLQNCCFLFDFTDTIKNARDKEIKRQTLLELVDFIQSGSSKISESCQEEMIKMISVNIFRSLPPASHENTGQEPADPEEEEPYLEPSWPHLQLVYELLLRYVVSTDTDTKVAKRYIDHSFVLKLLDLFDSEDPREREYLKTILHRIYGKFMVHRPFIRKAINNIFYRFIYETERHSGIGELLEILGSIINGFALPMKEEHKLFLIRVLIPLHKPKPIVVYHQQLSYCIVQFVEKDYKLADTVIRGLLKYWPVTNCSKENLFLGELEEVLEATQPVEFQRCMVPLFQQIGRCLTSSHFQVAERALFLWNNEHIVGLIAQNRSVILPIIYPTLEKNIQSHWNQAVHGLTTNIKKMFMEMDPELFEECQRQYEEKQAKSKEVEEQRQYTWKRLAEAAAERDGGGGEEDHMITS

[2] = target: T2, YFP-B’α (Arabidopsis thaliana) (UniProt O04375)
T2 sequence: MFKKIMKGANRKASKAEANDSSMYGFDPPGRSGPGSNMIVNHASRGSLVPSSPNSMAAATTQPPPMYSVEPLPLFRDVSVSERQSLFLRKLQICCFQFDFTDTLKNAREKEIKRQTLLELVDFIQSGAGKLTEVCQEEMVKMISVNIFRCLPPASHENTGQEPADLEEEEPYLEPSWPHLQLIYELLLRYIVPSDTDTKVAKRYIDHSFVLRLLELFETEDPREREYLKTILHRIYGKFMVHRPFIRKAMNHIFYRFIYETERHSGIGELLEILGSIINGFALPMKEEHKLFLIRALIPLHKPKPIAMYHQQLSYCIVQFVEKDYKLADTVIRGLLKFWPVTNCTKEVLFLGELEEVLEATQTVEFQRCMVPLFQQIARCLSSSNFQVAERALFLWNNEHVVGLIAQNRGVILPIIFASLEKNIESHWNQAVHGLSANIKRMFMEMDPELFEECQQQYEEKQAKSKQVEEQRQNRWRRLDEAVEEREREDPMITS

[3] = target: T3, RCN1-GFP (Arabidopsis thaliana) (UniProt Q38845)
T3 sequence: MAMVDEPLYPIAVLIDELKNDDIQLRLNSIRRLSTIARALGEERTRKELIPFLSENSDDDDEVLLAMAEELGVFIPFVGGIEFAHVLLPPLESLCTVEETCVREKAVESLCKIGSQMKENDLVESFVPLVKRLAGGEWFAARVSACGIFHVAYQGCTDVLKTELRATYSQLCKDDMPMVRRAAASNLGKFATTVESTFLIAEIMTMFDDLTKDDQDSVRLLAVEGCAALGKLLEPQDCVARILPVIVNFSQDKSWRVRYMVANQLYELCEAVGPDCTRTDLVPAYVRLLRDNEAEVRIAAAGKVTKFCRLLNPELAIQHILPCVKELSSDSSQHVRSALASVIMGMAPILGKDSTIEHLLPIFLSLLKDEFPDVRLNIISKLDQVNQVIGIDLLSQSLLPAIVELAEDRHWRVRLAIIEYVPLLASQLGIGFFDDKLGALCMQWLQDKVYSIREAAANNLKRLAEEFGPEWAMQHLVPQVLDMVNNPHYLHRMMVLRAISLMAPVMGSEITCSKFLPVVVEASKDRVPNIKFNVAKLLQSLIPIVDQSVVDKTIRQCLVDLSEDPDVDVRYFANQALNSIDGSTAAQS

Measured: binding

PP2A C subunit (enzyme)
binds: all assays above

Results are given in words; binding and its absence hold for the method and conditions named. Binding seen in cells or lysates may run through a third protein. A result given as binding can be weak or reduced; the word gives no strength. Sequences can lack the tags named with a protein.
